Results are given in words; binding and its absence hold for the method and conditions named. In cells and extracts the contact can be indirect. Some entries that bind do so weakly or less than the wild type.

Chains of the proteins cited; added tags and fusions are not shown.
UniProt Q61457: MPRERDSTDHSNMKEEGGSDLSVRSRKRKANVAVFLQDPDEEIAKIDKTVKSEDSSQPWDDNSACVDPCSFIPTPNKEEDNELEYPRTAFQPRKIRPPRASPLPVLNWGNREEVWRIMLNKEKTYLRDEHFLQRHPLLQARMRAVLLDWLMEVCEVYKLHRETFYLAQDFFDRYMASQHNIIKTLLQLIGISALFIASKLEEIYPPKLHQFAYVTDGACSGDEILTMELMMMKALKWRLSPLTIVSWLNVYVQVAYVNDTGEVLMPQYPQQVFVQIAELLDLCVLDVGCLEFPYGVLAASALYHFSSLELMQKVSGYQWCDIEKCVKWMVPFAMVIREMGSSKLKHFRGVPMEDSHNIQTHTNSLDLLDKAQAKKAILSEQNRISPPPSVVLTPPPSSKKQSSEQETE
UniProt P25322: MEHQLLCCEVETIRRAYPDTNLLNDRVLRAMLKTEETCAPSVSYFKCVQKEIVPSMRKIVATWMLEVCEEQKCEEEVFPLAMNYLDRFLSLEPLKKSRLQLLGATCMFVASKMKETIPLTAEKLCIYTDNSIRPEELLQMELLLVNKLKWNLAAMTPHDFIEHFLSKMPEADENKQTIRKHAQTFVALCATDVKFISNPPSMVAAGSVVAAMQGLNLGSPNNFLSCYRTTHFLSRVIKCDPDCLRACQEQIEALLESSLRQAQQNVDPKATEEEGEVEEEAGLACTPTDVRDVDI

The target of assay [1] is tagged (Flag-HA) cyclin E1 of knock-in mice, end of the tag not told for the experiment or an about 1:1 mixture of the N- and C-terminally tagged forms (mouse) (UniProt Q61457). As to the kind of experiment: co-IP; anti-Flag immunoprecipitation from spleens of KI mice, elution with Flag peptides, re-immunoprecipitation with anti-p130 antibody or IgG, immunoblot. In general terms: In western blotting, separated proteins are transferred to a membrane and probed.

Assay [2] shares this target. Description: co-IP; anti-Flag immunoprecipitation of cyclin E1 from spleens of tagged knock-in mice, immunoblot with the indicated antibodies.
Assay [3] addresses cyclin D1, mouse (mouse (endogenous in spleen)) (UniProt P25322). As to the kind of experiment: co-IP; cyclins D1, A2 or B1 immunoprecipitated from lysates of wild-type or Cdk2-/- spleens, immunoblot.
Assay [4] concerns the target N-terminally Flag- and HA-tagged cyclin E1 (cyclin E1^Ntag knock-in allele) (mouse) (UniProt Q61457). As to the kind of experiment: co-IP; anti-Flag immunoprecipitation from spleens and thymuses of Cdk2+/+/cyclin E1 Ntag/Ntag (KI) and Cdk2-/-/cyclin E1 Ntag/Ntag mice, wild-type mice as control, immunoblot.

B1: p130, mouse (protein, UniProt Q64700 1-1135)
chain: MASGGNQSPPPPPAAAASSEEEEEDGDAADRAQPAGSPSHQIQQRFEELCSRLNMDEAARAEAWSSYRSMSESYTLEGNDLHWLACALYVACRKSVPTVSKGTAEGNYVSLTRILRCSEQSLIEFFNKMKKWEDMANLPPHFRERTERLERNFTVSAVIFKKYEPIFQDIFKYPQEEQPRQQRGRKQRRQPCTTSEIFHFCWVLFIYAKGNFPMISDDLVNSYHLLLCALDLVYGNALQCSNRKELVNPNFKGLSEDCHPKDSKASSDPPCVIEKLCSLHDGLVLEAKGIKEHFWKPYIRKLFEKKLLKGKEENLTGFLEPGNFGESFKAVNKAYEEYVLAAGNLDERVFLGEDAEEEVGTLSRCLSAASGTESAERTQMRDILQQHLDKSKALRVCTPLTGVRYVQENSPCVTPVSTAAHSLSRLHTMLSGLRNAPSEKLERILRSCSRDPTQAIADRLKEMYEIYSQHFQPDENFSNCAKEIANKHFRFAEMLYYKVLESVIEQEQKRLGDMDLSGVLEHDAFHRSLLACCLEVVAFSHKPPGNFPFIAEIFDVPHYHFYKVIEVFIRAEDGLCREVVKHLNQIEEQILDHLAWKTKSPLWDRIRDNENRVPTCEEVMPPQNLERTDEIYIAGSPLTPRRVGEVRADAGGLGRSITSPTTLYDRYSSPTVSTTRRRLFENDSPSEGSTSGRIPPQPLVNAVPVQNVPGETVSVTPVPGQTLVTMATATVTANNGQTVTIPVQGIANENGGITFFPVQVNVGGQAQAVAGSIQPLSAQALAGSLSSQQVTGTTLQVPGPVAIQQISPGGQQQNPGQPLTSSSIRPRKTSSLALFFRKVYYLAGVRLRDLCIKLDISDELRKKIWTCFEFSIIQCTELMMDRHLDQLLMCAIYVMAKVTKEDRSFQNIMRCYRTQPQARSQVYRSVLIKGKRRNSGSSESRSHQNSPTELNTDRASRDSSPVMRSNSTLPVPQPSSAPPTPTRLTGASSDVEEEERGDLIQFYNNIYRKQIQAFAMKYSQANAQTDTPPLSPYPFVRTGSPRRVQLSQSHPIYISPHNNEAMPSPREKIFYYFSNSPSKRLREINSMIRTGETPTKKRGILLDDGSESPAKRICPENHSALLRRLQDVANDRGSQ
In the case of B1, the binding entry in assay [1] was “binds”.

B2: Cdc7, mouse (enzyme, UniProt Q9Z0H0 1-564)
chain: MEEPMAFSSLRGSDRCPADDSLKKYEQSVKLSGIKRDIEELCEAVPQLVNVFKIKDKIGEGTFSSVYLATAQLQEGHEEKIALKHLIPTSHPMRIAAELQCLTVAGGQDNVMGLKYCFRKNDHVVIAMPYLEHESFLDILNSLSFQEVREYMYNLFVALKRIHQFGIVHRDVKPSNFLYNRRLKKYALVDFGLAQGTRDTKIELLKFVQSEAQQEDCSRNKYHGVVGHKGLLSRPAPKTVDQQCTPKTSVKRSYTQVHIKQGKDGKERSVGLSVQRSVFGERNFNIHSSISHESPAEKLIKQSKTVDIISRKLATKKTAISTKAMNSVMRETARSCPAVLTCDCYGSDRVCSVCLSRRQQVAPRAGTPGFRAPEVLTKCPDQTTAIDMWSAGVIFLSLLSGRYPFYKASDDLTALAQIMTIRGSRETIQAAKAFGKSVLCSKEVPAQDLRALCERLRGLDSTTPRSASGPPGNASYDPAASKNTDHKASRVQAAQAQHSEDSLYKRDNDGYWSHPKDCTSNSEGWDSVPDEAYDLLDKLLDLNPASRITAEAALLHAFFKDMCS
As for B2, the binding entry in assay [2] was “binds”.

B3: Cdk4, mouse (enzyme, UniProt P30285 1-303)
chain: MAATRYEPVAEIGVGAYGTVYKARDPHSGHFVALKSVRVPNGGAAGGGLPVSTVREVALLRRLEAFEHPNVVRLMDVCATSRTDRDIKVTLVFEHIDQDLRTYLDKAPPPGLPVETIKDLMRQFLSGLDFLHANCIVHRDLKPENILVTSNGTVKLADFGLARIYSYQMALTPVVVTLWYRAPEVLLQSTYATPVDMWSVGCIFAEMFRRKPLFCGNSEADQLGKIFDLIGLPPEDDWPREVSLPRGAFAPRGPRPVQSVVPEMEESGAQLLLEMLTFNPHKRISAFRALQHSYLHKEESDAE
Take B3: the binding result in assay [3] and in assay [4] was “binds” in each case.

Source of the values: paper PMC5102403.
